Reference: EP4524159A1, “ANTIBODY AND USE THEREOF” (Sichuan Huiyu Pharmaceutical Co., Ltd., priority 2022, dated 2023)

Experiment: Drug : antibody ratio (DAR) of antibody-vc-MMAE conjugates by hydrophobic HPLC
Conditions: share of DAR0 species
Procedure: The specific operation was to reduce each antibody and the control antibody CD27H10 (27H10 antibody in WO2018112334A1) with a 2-fold molar amount of […] (TECP) at 4 °C for 1 hour. A 7-fold molar amount of vcMMAE was then added for ligation at 4-25 °C for 1 h, and then the reaction mixture was dialyzed against 1 × PBS pH 8.0 and filtered for sterilization. Drug : antibody ratio (DAR) was detected by hydrophobic kurtosis with HLPC, and the molecular coupling results are shown in Table 14. Table 14 DAR values of antibody-drug conjugates
The humanized antibodies 1CP-125, 1CP-117 and 1CP-152 were subjected to linking to form ADC, and the linking process was the same as in example 18. Table 18 DAR values of antibody-drug conjugates

| Molecule | DARO (%) |
| --- | --- |
| 3C11-MMAE (conjugate) VH: EVQLQQSGTVLARPGASVKMSCKASGYNFISYWLHWIKQRPGQGLEWIGGIYPGNTDTTYNQKFKGKAKVTAVTSATTAYMELSSLTNEDSAVYYCIRYDYDRGMDYWGQGTTVTVSS VL: DIQMTQSPSSFSVSLGDRVTITCRASEDIYYRLAWYQQKPGNAPRLLISGATALETGVPSRFSGSGSGKDYTLSITSLQTEDVATYYCQHYWNIPWTFGGGTKLEIK | 9.01% |
| 3B 12H5-MMAE (conjugate) VH: EVQLQQSGTVLARPGASVKMSCKASGYSFTIYWVHWVKQRPGQGLEWIGAVYPGNDDTSYNQNFKGKAKLTAVTSATTAYMELSSLTIDDSAVYYCTRHTYDEVFDYWGQGTTVTVSS VL: DIVMTQSPSSLSVSLGDRVTITCKASEDIYYRLAWYQQKPGNAPRLLISGGTNLEAGIPSRFSGSGSGKDYTLSITSLQTEDVAIYYCQHYWNTPWTFGGGTKLEIK | 5.752% |
| 10D2-MMAE (conjugate) VH: EVQLQQSGPELKKPGETVKISCKASGYTFTDYSMHWVKQAPGKGLKWMGWINTETGQPTYADDFKGRFAFSLETSASSAYLQINNLKNEDTATYFCTRTFYYDYVGDYWGQGTTVTVSS VL: DIVMTQSHKFMSTSVGDRVSITCKASQDVSTAVAWYRQKPGQSPKLLIYWASTRHTGVPDRLTGSGSGTDFALTINSVQAEDLALYYCQQHSSTPYTFGGGTKLEIK | 8.28% |
| 8E5-MMAE (conjugate) VH: EVQLKESGPELKKPGETVKISCKASGYTLTDFSMHWLKQAPGKGLKWMGWINTETGAPTYADDFKGRFALSLDTSANTAYLQINNLKNEDTATYFCSRGRDYDPHFDYWGQGTTVTVSS VL: EIVLTQSPATLSVTPGDRVSLSCRASQSISDFLHWYQQRSHESPRLLIKYASQSISGIPSRFGGSGSGSDFTLNINTVEPEDVGMYYCQSAHSFPYTFGGGTKLEIK | 7.97% |
| G10F6-MMAE (conjugate) VH: EVKLVESGPGILQPSQTLSLTCSFSGFSLSTSGMGVSWVRQPSGKGLEWLAHIYWDDDKRYNPSLKGRLTISKDTPRNQVFLEITSVDTTDTATYYCARVPGNWDEDAMDYWGQGTTVTVSS VL: DIQMTQSPLSLPVSLGDQASISCRSSQNIVHTNGNTYLEWYLQKVGQSPKLLIYKVSNRFSGVPDRFSGSGSGTDFTLKISRVEAEDLGVYYCFQGSHVPYTFGGGTKLEIK | 8.34% |
| 6A7-MMAE (conjugate) VH: EVQLKESGAELVRPGASVKVSCKASGYSFTSYWMNWVKQRPGQGLEWIGMIHPSDSETKLNQKFRDRASLTVDKSSSTAYMQLSSPTSEDSAVYYCTINYESFYYAMDYWGQGTTVTVSS VL: DIVMTQSPASLAVSLGQRATISCRASKSVSTSGYSYMHWYQQKPGQPPKLLLYLASNLESGVPARFSGSGSGADFTLNIHPVEEEDAATYYCLHSRELPYTFGGGTKLEIK | 4.87% |
